Results are given in words; binding and its absence hold for the method and conditions named. Binding seen in cells or lysates may run through a third protein. For some assays here: Binding calls can cover weak binding; strength is not graded here.

Holding throughout (assay): co-IP; purified proteins: hPEPD, an hPEPD mutant or mSRC at 40 nM incubated with a coagulation factor, FXII or an FXII mutant at 0.5 μM in PBS, 100 μl, 2 h at 37°C; then a specific primary antibody at 4°C overnight, IP by protein G-agarose, IB; both purified
Experiment [1] addresses human coagulation factor XII (purchased, not His-tagged) (human).
Experiment [2] has as its target human high molecular weight kininogen (human).
Experiment [3] concerns the target human prekallikrein (human).
Experiment [4] has as its target human coagulation factor XI (human).

B1: 185V-493Kdel-hPEPD (domain or fragment, UniProt P12955 1-184)
chain: MAAATGPSFWLGNETLKVPLALFALNRQRLCERLRKNPAVQAGSIVVLQGGEETQRYCTDTGVLFRQESFFHWAFGVTEPGCYGVIDVDTGKSTLFVPRLPASHATWMGKIHSKEHFKEKYAVDDVQYVDEIASVLTSQKPSVLLTLRGVNTDSGSVCREASFDGISKFEVNNTILHPEIVECR
As to B1, the binding result in experiment [1] was “no binding (tested: mutant 40 nM, FXII 0.5 μM)”.

B2: 1M-265Rdel-hPEPD (domain or fragment, UniProt P12955 266-493)
chain: TIQNGDMCLFDMGGEYYCFASDITCSFPANGKFTADQKAVYEAVLRSSRAVMGAMKPGVWWPDMHRLADRIHLEELAHMGILSGSVDAMVQAHLGAVFMPHGLGHFLGIDVHDVGGYPEGVERIDEPGLRSLRTARHLQPGMVLTVEPGIYFIDHLLDEALADPARASFLNREVLQRFRGFGGVRIEEDVVVTDSGIELLTCVPRTVEEIEACMAGCDKAFTPFSGPK
In the case of B2, the binding result in experiment [1] is on record as “binds”.

B3: recombinant human prolidase (peptidase D, PEPD) (enzyme, UniProt P12955 1-493)
chain: MAAATGPSFWLGNETLKVPLALFALNRQRLCERLRKNPAVQAGSIVVLQGGEETQRYCTDTGVLFRQESFFHWAFGVTEPGCYGVIDVDTGKSTLFVPRLPASHATWMGKIHSKEHFKEKYAVDDVQYVDEIASVLTSQKPSVLLTLRGVNTDSGSVCREASFDGISKFEVNNTILHPEIVECRVFKTDMELEVLRYTNKISSEAHREVMKAVKVGMKEYELESLFEHYCYSRGGMRHSSYTCICGSGENSAVLHYGHAGAPNDRTIQNGDMCLFDMGGEYYCFASDITCSFPANGKFTADQKAVYEAVLRSSRAVMGAMKPGVWWPDMHRLADRIHLEELAHMGILSGSVDAMVQAHLGAVFMPHGLGHFLGIDVHDVGGYPEGVERIDEPGLRSLRTARHLQPGMVLTVEPGIYFIDHLLDEALADPARASFLNREVLQRFRGFGGVRIEEDVVVTDSGIELLTCVPRTVEEIEACMAGCDKAFTPFSGPK
With B3, the binding result in experiment [2] is recorded as “no binding (tested: hPEPD 40 nM, coagulation factor 0.5 μM)”; in experiment [3] it was “no binding (tested: hPEPD 40 nM, coagulation factor 0.5 μM)”; in experiment [1], “binds”; in experiment [4], “no binding (tested: hPEPD 40 nM, coagulation factor 0.5 μM)”.

B4: 278G>D-hPEPD (enzyme, UniProt P12955 1-493)
chain: MAAATGPSFWLGNETLKVPLALFALNRQRLCERLRKNPAVQAGSIVVLQGGEETQRYCTDTGVLFRQESFFHWAFGVTEPGCYGVIDVDTGKSTLFVPRLPASHATWMGKIHSKEHFKEKYAVDDVQYVDEIASVLTSQKPSVLLTLRGVNTDSGSVCREASFDGISKFEVNNTILHPEIVECRVFKTDMELEVLRYTNKISSEAHREVMKAVKVGMKEYELESLFEHYCYSRGGMRHSSYTCICGSGENSAVLHYGHAGAPNDRTIQNGDMCLFDMDGEYYCFASDITCSFPANGKFTADQKAVYEAVLRSSRAVMGAMKPGVWWPDMHRLADRIHLEELAHMGILSGSVDAMVQAHLGAVFMPHGLGHFLGIDVHDVGGYPEGVERIDEPGLRSLRTARHLQPGMVLTVEPGIYFIDHLLDEALADPARASFLNREVLQRFRGFGGVRIEEDVVVTDSGIELLTCVPRTVEEIEACMAGCDKAFTPFSGPK
As to B4, in experiment [1], the binding entry is recorded as “binds”.

B5: 266T-493Kdel-hPEPD (domain or fragment, UniProt P12955 1-265)
chain: MAAATGPSFWLGNETLKVPLALFALNRQRLCERLRKNPAVQAGSIVVLQGGEETQRYCTDTGVLFRQESFFHWAFGVTEPGCYGVIDVDTGKSTLFVPRLPASHATWMGKIHSKEHFKEKYAVDDVQYVDEIASVLTSQKPSVLLTLRGVNTDSGSVCREASFDGISKFEVNNTILHPEIVECRVFKTDMELEVLRYTNKISSEAHREVMKAVKVGMKEYELESLFEHYCYSRGGMRHSSYTCICGSGENSAVLHYGHAGAPNDR
Take B5: in experiment [1], the binding result is on record as “no binding (tested: mutant 40 nM, FXII 0.5 μM)”.

The values are drawn from paper PMC5173032.
